{"sequences": {"note": "Amino acid sequences for entries named in this document (tags omitted). A change or cut given only in a name is not applied to a line headed by its entry.", "UniProt O14744": "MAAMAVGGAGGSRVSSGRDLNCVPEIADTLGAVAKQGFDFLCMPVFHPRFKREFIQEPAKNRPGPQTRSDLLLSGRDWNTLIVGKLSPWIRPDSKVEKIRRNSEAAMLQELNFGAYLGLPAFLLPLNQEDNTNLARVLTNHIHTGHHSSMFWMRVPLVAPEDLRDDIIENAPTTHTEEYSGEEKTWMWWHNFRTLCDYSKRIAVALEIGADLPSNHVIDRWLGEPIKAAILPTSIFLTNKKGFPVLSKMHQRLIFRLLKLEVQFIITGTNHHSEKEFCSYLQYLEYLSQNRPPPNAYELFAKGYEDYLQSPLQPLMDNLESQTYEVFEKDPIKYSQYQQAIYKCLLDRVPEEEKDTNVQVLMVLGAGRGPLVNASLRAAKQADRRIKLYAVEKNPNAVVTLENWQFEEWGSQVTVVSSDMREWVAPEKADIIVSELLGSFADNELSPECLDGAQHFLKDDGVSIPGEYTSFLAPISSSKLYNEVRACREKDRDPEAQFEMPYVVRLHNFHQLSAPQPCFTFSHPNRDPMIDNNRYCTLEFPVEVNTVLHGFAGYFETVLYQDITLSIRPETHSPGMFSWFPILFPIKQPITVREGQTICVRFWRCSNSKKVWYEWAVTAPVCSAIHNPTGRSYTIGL", "UniProt Q6ZV65": "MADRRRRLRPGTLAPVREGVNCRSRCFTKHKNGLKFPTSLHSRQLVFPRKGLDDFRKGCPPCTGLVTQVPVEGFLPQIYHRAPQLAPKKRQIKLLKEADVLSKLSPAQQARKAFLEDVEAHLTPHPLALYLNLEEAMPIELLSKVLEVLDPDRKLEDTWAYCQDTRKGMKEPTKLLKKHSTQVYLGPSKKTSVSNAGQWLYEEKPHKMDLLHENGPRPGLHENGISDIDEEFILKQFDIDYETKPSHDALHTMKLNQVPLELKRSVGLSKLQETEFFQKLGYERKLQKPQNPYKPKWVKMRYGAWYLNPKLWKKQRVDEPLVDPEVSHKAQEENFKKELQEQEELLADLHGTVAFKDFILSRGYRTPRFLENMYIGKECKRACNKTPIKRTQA"}, "source": "paper PMC7772775", "about": "“The uncharacterized protein FAM47E interacts with PRMT5 and regulates its functions” (Life Science Alliance, 2020)", "key": {"[1]": {"target": "endogenous PRMT5 (human (endogenous in HEK293)) (UniProt O14744)", "assay": "co-IP; endogenous proteins in HEK293 lysate (10 mM Tris pH 7.5, 150 mM NaCl, 0.5 mM EDTA, 0.5% NP40); rabbit IgG, FAM47E antibody or PRMT5 antibody, Protein A Dynabeads, 10 h at 4°C"}, "[2]": {"target": "endogenous FAM47E (human (endogenous in HEK293)) (UniProt Q6ZV65)", "assay": "co-IP; endogenous proteins in HEK293 lysate (10 mM Tris pH 7.5, 150 mM NaCl, 0.5 mM EDTA, 0.5% NP40); rabbit IgG, FAM47E antibody or PRMT5 antibody, Protein A Dynabeads, 10 h at 4°C"}}, "note": "No constants are given. Whether binding was seen depends on the method and setting. In cells and extracts the contact can be indirect. Binding calls can cover weak binding; strength is not graded here."}
{"substance": "endogenous FAM47E (from UniProt Q6ZV65-2)", "values": [{"measurement": "binding", "setting": "[1]", "value": "binds"}]}
{"substance": "endogenous PRMT5 (from UniProt O14744 1-637) (enzyme)", "values": [{"measurement": "binding", "setting": "[2]", "value": "binds"}]}
